According to patent US20250288509A1, “Composition for Promoting Photoprotection and Cutaneous Regeneration through Sequential Photonic Transfer (SPT)” (priority 2022, published 2025):
At least one structure is not confirmed: it was looked up by name or label, or the drawing left a doubt.

Assay: In vitro ROS production by colorimetric Nitro Blue Tetrazolium (NBT) oxidation in hydroalcoholic solution
Settings: FIG. 4
Source text: NBT is a specific molecular sensor for superoxide anion production, which is the first type of ROS produced during the reduction of molecular oxygen to generate water. In the presence of superoxide anion, NBT, a colorless molecule in its reduced state, oxidizes to form a chromophore with an absorption peak at 540 nm. The degree of oxidation, and therefore the absorbance at 540 nm, is directly proportional to ROS production. […] However, the combination of flavonoids/cannabinoids, chlorophyll A, and PpIX excited with UV light (310 nm) induces a potent and significant ROS production equivalent to that obtained by exciting PpIX with red light (FIG. 4).
FIG. 4. Quantification of in vitro ROS production measured as absorbance at 540 nm of Nitro Blue Tetrazolium (NBT) compound oxidized by […] production in hydroalcoholic solutions of different compound combinations under basal conditions or excited with UV (310 nm) or red (635 nm) light. Results are expressed as mean+/−standard deviation of three independent experiments. *, […]; ***, P≤0.01 (PpIX: Protoporphyrin IX; Mn: Morin; CBD: cannabidiol; Cl: chlorophyll A).

C=CC1=C(C)c2cc3[nH]c(cc4nc(cc5[nH]c(cc1n2)c(C)c5CCC(=O)O)C(CCC(=O)O)=C4C)c(C)c3C=C [PpIX, Protoporphyrin IX]
ROS production (NBT oxidation, absorbance at 540 nm) (basal conditions): no significant ROS production is detected | ROS production (NBT oxidation, absorbance at 540 nm) (excited with UV light (310 nm)): no significant ROS production is detected | ROS production (NBT oxidation, absorbance at 540 nm) (excited with red light (635 nm)): NBT oxidation is greatly increased
